# Laboratory results reported in publication PMC12667451.
# The chains behind the UniProt entries cited, without tags or fusion partners. Where a name states a change or a piece, a line headed by the entry shows the natural chain unless it says otherwise.
# UniProt Q9ES74: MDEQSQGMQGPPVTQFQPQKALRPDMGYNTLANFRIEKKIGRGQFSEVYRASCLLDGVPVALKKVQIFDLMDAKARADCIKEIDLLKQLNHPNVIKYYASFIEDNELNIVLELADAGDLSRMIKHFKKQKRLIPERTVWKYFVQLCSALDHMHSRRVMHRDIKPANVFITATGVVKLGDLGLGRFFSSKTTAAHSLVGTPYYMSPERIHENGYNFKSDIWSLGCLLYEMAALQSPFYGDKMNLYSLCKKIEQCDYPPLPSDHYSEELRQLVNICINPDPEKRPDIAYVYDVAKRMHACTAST
# Results are given in words; binding and its absence hold for the method and conditions named. For part of these data: Binding seen in cells or lysates may run through a third protein. Some results given as binding are weak or reduced against the parent protein; the word gives no strength. For part of these data: Tags and fused reporters may be left off the sequences shown.
# T1: Myc-NLRP3, Q8R4B8
# T1 chain: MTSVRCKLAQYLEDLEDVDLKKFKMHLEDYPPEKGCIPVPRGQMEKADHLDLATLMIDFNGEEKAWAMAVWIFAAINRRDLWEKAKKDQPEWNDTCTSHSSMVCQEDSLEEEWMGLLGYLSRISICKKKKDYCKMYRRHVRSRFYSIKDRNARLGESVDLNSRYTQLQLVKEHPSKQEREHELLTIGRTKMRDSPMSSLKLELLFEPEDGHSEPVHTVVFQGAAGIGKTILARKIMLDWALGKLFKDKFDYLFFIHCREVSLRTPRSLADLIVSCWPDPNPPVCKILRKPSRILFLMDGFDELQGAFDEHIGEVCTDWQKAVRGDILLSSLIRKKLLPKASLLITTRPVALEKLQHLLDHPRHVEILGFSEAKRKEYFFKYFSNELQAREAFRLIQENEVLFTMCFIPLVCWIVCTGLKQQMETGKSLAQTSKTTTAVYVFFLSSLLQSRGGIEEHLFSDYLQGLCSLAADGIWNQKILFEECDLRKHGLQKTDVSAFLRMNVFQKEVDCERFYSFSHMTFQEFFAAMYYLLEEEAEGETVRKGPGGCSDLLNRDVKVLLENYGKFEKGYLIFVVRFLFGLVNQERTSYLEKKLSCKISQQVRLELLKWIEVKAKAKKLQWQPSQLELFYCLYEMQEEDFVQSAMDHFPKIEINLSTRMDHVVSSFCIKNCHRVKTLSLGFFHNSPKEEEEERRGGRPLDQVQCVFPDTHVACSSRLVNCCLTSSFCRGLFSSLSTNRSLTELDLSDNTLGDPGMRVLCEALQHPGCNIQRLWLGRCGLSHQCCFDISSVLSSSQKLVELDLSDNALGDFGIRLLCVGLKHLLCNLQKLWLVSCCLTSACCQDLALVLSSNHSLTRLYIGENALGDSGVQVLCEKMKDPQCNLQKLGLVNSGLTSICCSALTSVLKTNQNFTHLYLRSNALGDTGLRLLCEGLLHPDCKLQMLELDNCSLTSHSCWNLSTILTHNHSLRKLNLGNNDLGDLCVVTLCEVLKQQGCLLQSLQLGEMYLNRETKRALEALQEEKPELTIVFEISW
# T2: NLRP3, endogenous (mouse (endogenous in mouse peritoneal macrophages)), Q8R4B8
# T2 chain: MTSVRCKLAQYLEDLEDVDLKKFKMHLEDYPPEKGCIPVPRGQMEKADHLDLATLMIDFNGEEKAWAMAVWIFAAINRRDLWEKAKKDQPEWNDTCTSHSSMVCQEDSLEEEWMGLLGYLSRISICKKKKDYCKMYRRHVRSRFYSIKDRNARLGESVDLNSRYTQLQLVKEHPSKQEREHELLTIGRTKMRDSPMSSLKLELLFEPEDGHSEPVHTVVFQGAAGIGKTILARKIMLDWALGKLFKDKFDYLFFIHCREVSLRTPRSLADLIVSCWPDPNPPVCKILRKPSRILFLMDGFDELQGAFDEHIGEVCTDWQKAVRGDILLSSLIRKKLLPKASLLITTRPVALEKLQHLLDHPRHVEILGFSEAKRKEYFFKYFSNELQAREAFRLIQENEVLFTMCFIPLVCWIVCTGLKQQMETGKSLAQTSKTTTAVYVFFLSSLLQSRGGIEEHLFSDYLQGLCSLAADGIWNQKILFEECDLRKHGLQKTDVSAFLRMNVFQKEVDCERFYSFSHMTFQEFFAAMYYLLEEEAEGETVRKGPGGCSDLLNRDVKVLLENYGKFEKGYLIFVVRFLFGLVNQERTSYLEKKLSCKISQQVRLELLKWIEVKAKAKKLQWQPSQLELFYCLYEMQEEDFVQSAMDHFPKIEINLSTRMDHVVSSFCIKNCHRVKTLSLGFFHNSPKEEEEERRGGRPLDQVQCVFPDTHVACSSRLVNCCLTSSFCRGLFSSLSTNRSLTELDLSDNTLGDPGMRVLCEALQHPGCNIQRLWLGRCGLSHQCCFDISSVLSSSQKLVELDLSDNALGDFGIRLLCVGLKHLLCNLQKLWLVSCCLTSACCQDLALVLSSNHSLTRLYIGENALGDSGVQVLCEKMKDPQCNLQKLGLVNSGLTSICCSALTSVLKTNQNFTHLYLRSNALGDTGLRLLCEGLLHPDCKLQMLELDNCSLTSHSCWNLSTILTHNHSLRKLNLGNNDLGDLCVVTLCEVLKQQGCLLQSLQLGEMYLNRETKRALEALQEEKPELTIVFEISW
# What was measured:
# Myc-NEK7 = Myc-NEK7 (UniProt Q9ES74); assay: co-IP; HEK293T cells transfected with tagged plasmids, lysed 24 h later in IP buffer (50 mM Tris HCl pH 7.4, 50 mM EDTA, 200 mM NaCl, 1% NP-40); anti-Flag affinity gel or anti-c-Myc agarose, 2 h at 4 °C; with or without 10 µM GSK461364 for 1 h
# Flag-NEK7 S260A = Flag-NEK7 S260A (UniProt Q9ES74); assay: as above
# Flag-NEK7 WT = Flag-NEK7 WT (UniProt Q9ES74); assay: as above
# Flag-NEK7 S221A = Flag-NEK7 S221A (UniProt Q9ES74); assay: as above
# [1] = target: NEK7, endogenous (mouse (endogenous in mouse peritoneal macrophages)) (UniProt Q9ES74); assay: co-IP; endogenous proteins in lysates of mouse peritoneal macrophages (IP buffer: 50 mM Tris HCl pH 7.4, 50 mM EDTA, 200 mM NaCl, 1% NP-40); primary antibody overnight at 4 °C, protein A/G-agarose; cells untreated or LPS 100 ng/mL 3 h, then nigericin 10 µM 1 h; with si-Ctrl or si-PLK1, with or without 10 µM GSK461364
# [2] = target: NEK7, endogenous (mouse (endogenous in mouse peritoneal macrophages)) (UniProt Q9ES74); assay: proximity ligation; Duolink PLA in fixed mouse peritoneal macrophages primed with LPS (100 ng/mL, 3 h) and stimulated with nigericin or ATP
# [3] = target: Recombinant mouse NEK7-GST (mouse) (UniProt Q9ES74); assay: pull-down; GST or NEK7-GST on glutathione resin, incubated with PLK1-his for 2 h at 4 °C in 20 mM Tris-HCl pH 7.9, 150 mM NaCl, 0.5 mM EDTA, 10% glycerol, 1 mM DTT, 0.1% Triton X-100; immunoblot; both purified
# Myc-NLRP3, Q8R4B8 = target: T1, Myc-NLRP3, Q8R4B8; assay: co-IP; HEK293T cells transfected with tagged plasmids, lysed 24 h later in IP buffer (50 mM Tris HCl pH 7.4, 50 mM EDTA, 200 mM NaCl, 1% NP-40); anti-Flag affinity gel or anti-c-Myc agarose, 2 h at 4 °C; with or without 10 µM GSK461364 for 1 h; conditions: remark: other sources report otherwise
# [4] = target: T2, NLRP3, endogenous (mouse (endogenous in …)); assay: co-IP; endogenous proteins in lysates of mouse peritoneal macrophages (IP buffer: 50 mM Tris HCl pH 7.4, 50 mM EDTA, 200 mM NaCl, 1% NP-40); primary antibody overnight at 4 °C, protein A/G-agarose; cells untreated or LPS 100 ng/mL 3 h, then nigericin 10 µM 1 h; with si-Ctrl or si-PLK1, with or without 10 µM GSK461364; conditions: remark: other sources report otherwise
molecule,measurement,setting,value
Flag-PLK1 (Polo-like kinase 1) (from UniProt Q07832 1-603) (enzyme),binding,Myc-NEK7,binds
Myc-PLK1 (Polo-like kinase 1) (from UniProt Q07832 1-603) (enzyme),binding,Flag-NEK7 S260A,binds
same,binding,Flag-NEK7 WT,binds
same,binding,Flag-NEK7 S221A,binds
"PLK1 (Polo-like kinase 1), endogenous (from UniProt Q07832 1-603) (enzyme)",binding,[1],binds
same,binding,[2],binds
Recombinant mouse PLK1-his (from UniProt Q07832 1-603) (enzyme),binding,[3],binds
"Flag-PLK1 (Polo-like kinase 1), Q07832 1-603 (enzyme) MNAAAKAGKLARAPADLGKGGVPGDAVPGAPVAAPLAKEIPEVLVDPRSRRQYVRGRFLGKGGFAKCFEISDADTKEVFAGKIVPKSLLLKPHQKEKMSMEISIHRSLAHQHVVGFHDFFEDSDFVFVVLELCRRRSLLELHKRRKALTEPEARYYLRQIVLGCQYLHRNQVIHRDLKLGNLFLNEDLEVKIGDFGLATKVEYEGERKKTLCGTPNYIAPEVLSKKGHSFEVDVWSIGCIMYTLLVGKPPFETSCLKETYLRIKKNEYSIPKHINPVAASLIQKMLQTDPTARPTIHELLNDEFFTSGYIPARLPITCLTIPPRFSIAPSSLDPSSRKPLKVLNKGVENPLPDRPREKEEPVVRETNEAIECHLSDLLQQLTSVNASKPSERGLVRQEEAEDPACIPIFWVSKWVDYSDKYGLGYQLCDNSVGVLFNDSTRLILYNDGDSLQYIERDGTESYLTVSSHPNSLMKKITLLNYFRNYMSEHLLKAGANITPREGDELARLPYLRTWFRTRSAIILHLSNGTVQINFFQDHTKLILCPLMAAVTYINEKRDFQTYRLSLLEEYGCCKELASRLRYARTMVDKLLSSRSASNRLKAS",binding,"Myc-NLRP3, Q8R4B8",no binding
"PLK1 (Polo-like kinase 1), endogenous, Q07832 1-603 (enzyme) MNAAAKAGKLARAPADLGKGGVPGDAVPGAPVAAPLAKEIPEVLVDPRSRRQYVRGRFLGKGGFAKCFEISDADTKEVFAGKIVPKSLLLKPHQKEKMSMEISIHRSLAHQHVVGFHDFFEDSDFVFVVLELCRRRSLLELHKRRKALTEPEARYYLRQIVLGCQYLHRNQVIHRDLKLGNLFLNEDLEVKIGDFGLATKVEYEGERKKTLCGTPNYIAPEVLSKKGHSFEVDVWSIGCIMYTLLVGKPPFETSCLKETYLRIKKNEYSIPKHINPVAASLIQKMLQTDPTARPTIHELLNDEFFTSGYIPARLPITCLTIPPRFSIAPSSLDPSSRKPLKVLNKGVENPLPDRPREKEEPVVRETNEAIECHLSDLLQQLTSVNASKPSERGLVRQEEAEDPACIPIFWVSKWVDYSDKYGLGYQLCDNSVGVLFNDSTRLILYNDGDSLQYIERDGTESYLTVSSHPNSLMKKITLLNYFRNYMSEHLLKAGANITPREGDELARLPYLRTWFRTRSAIILHLSNGTVQINFFQDHTKLILCPLMAAVTYINEKRDFQTYRLSLLEEYGCCKELASRLRYARTMVDKLLSSRSASNRLKAS",binding,[4],no binding
